These are yes or no findings as the source states them, for the method shown. Binding seen in cells or lysates may run through a third protein. These calls come from enrichment with a bait or labelling near it, and not all partners need be listed. Where a sequence is shown, tags or fusion partners need not be part of it.
target: native lamin A/C (mouse (endogenous in heart, skeletal muscle and brain)) (UniProt P48678); assay: affinity purification with mass spectrometry; native lamin A/C immunoprecipitated with mAb 4C11 and Protein G Sepharose from sonicated skeletal muscle lysates of old IL10-KO and control C57Bl/6 female mice (five each); 50 mM Tris pH 7.4, 300 mM NaCl, 0.3% Triton X-100, 4°C; TMT 10-plex

Protein sequences, listed by entry. Tags and fused reporters are not part of them. Residues count along the entry.
UniProt P48678, residues 1-647: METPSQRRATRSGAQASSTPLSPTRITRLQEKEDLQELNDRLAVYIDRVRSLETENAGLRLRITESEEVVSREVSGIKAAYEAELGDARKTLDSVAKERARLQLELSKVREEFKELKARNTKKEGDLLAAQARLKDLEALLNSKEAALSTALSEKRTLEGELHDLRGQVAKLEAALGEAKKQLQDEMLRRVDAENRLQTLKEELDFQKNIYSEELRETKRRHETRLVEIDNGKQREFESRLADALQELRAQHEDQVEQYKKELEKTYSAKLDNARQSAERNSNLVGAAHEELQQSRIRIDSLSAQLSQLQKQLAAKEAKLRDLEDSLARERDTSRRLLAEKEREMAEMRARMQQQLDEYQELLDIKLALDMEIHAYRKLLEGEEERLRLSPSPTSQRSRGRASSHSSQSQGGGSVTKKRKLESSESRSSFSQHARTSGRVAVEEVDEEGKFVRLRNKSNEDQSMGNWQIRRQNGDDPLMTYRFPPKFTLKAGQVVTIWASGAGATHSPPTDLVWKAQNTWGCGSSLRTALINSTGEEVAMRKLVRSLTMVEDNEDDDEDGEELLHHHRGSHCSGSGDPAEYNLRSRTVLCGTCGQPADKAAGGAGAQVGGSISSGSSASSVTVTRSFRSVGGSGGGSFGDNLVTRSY

Row | Binder | binding
1 | Caveolae-associated protein 2 (protein, UniProt Q63918 1-418) MGEDAAQAEKFQHPNTDMLQEKPSSPSPMPSSTPSPSLNLGSTEEAIRDNSQVNAVTVHTLLDKLVNMLDAVRENQHNMEQRQINLEGSVKGIQNDLTKLSKYQASTSNTVSKLLEKSRKVSAHTRAVRERLERQCVQVKRLENNHAQLLRRNHFKVLIFQEESEIPASVFVKEPVPSAAEGKEELADENKSLEETLHNVDLSSDDELPRDEEALEDSAEEKMEESRAEKIKRSSLKKVDSLKKAFSRQNIEKKMNKLGTKIVSVERREKIKKSLTPNHQKASSGKSSPFKVSPLSFGRKKVREGESSVENETKLEDQMQEDREEGSFTEGLSEASLPSGLMEGSAEDAEKSARRGNNSAVGSNADLTIEEDEEEEPVALQQAQQVRYESGYMLNSEEMEEPSEKQVQPAVLHVDQTA | binds
2 | N6-adenosine-methyltransferase subunit METTL14 (protein, UniProt Q3UIK4 1-456) MDSRLQEIRERQKLRRQLLAQQLGAESADSIGAVLNSKDEQREIAETRETCRASYDTSAPNSKRKCLDEGETDEDKVEEYKDELEMQQEEENLPYEEEIYKDSSTFLKGTQSLNPHNDYCQHFVDTGHRPQNFIRDVGLADRFEEYPKLRELIRLKDELIAKSNTPPMYLQADIEAFDIRELTPKFDVILLEPPLEEYYRETGITANEKCWTWDDIMKLEIDEIAAPRSFIFLWCGSGEGLDLGRVCLRKWGYRRCEDICWIKTNKNNPGKTKTLDPKAVFQRTKEHCLMGIKGTVKRSTDGDFIHANVDIDLIITEEPEIGNIEKPVEIFHIIEHFCLGRRRLHLFGRDSTIRPGWLTVGPTLTNSNYNAETYASYFSAPNSYLTGCTEEIERLRPKSPPPKSKSDRGGGAPRGGGRGGTSAGRGRERNRSNFRGERGGFRGGRGGTHRGGFTPR | binds
3 | FAS-associated factor 1 (protein, UniProt P54731 1-649) MASNMDREMILADFQACTGIENIDEAITLLEQNNWDLVAAINGVIPQENGILQSDFGGETMPGPTFDPASHPAPASTPSSSAFRPVMPSRQIVERQPRMLDFRVEYRDRNVDVVLEDSCTVGEIKQILENELQIPVPKMLLKGWKTGDVEDSTVLKSLHLPKNNSLYVLTPDLPPPSSSSHAGALQESLNQNFMLIITHREVQREYNLNFSGSSTVQEVKRNVYDLTSIPVRHQLWEGWPASATDDSMCLAESGLSYPCHRLTVGRRTSPVQTREQSEEQSTDVHMVSDSDGDDFEDASEFGVDDGEVFGMASSTLRKSPMMPENAENEGDALLQFTAEFSSRYGDCHPVFFIGSLEAAFQEAFYVKARDRKLLAIYLHHDESVLTNVFCSQMLCAESIVSYLSQNFITWAWDLTKDTNRARFLTMCNRHFGSVIAQTIRTQKTDQFPLFLIIMGKRSSNEVLNVIQGNTTVDELMMRLMAAMEIFSAQQQEDIKDEDEREARENVKREQDEAYRLSLEADRAKREAHEREMAEQFRLEQIRKEQEEEREAIRLSLEQALPPEPKEENAEPVSKLRIRTPSGEFLERRFLASNKLQIVFDFVASKGFPWDEFKLLSTFPRRDVTQLDPNKSLLEVNLFPQETLFLQAKE | binds
4 | Ppp1r12b (protein, UniProt Q8BG95 1-976) MAELEHLGGKRAESARARRAEQLRRWRGSLTEQEPAERQGAGRQLQTRRGSPRVRFEDGAVFLAACSSGDTDEVKKLLARGADINTVNVDGLTALHQACIDENLDMVKFLVENRANVNQQDNEGWTPLHAAASCGYLNIAEYFISHGASVGIVNSEGEVPSDLAEEPAMKDLLLEQVKKQGVDLEQSRKEEEQQMLQDARQWLNSGRIEDVRQARSGATALHVAAAKGYSEVLRLLIQAGYELNVQDHDGWTPLHAAAHWGVKEACSILAEALCDMDIRNKLGQTPFDVADEGLVEHLEMLQKKQDVLRSEKETRNKLIESDLNSKFQSGLFKNKEKMLYEEEIPKSQDTEEENKESSSSSSEEEEGEDEVSESETEKEADKKPEATVNHSNSEIKSRIMEQIPAPAQNTFSASSARRLSSLFNKAEEPKDESPSSWRLGLRKTGSHNMLSEVANSREALRDRGSSIYRSSSSPRISALLDDKDKERENKSYFSMLVPRRLSSTSDIEEKENRESAVNLVRSGSHTRQLWRDEAKGSETPQTIAPSTYTSTYLKRTPYKSQADSTAEKTADSVSSSTPLCVITNRPAPSTANGVPAATVFSSAGTDPSVEAREKRRSYLTPVRDEEAESLRKARSRQARQTRRSTQGVTLTDLQEAEKTFSRSRAERQAQEQPGEKLEDPGGLEGSTKKQEPSAAPTKGAGEGRSLEEEPIYHRLRYPTQPDKPTTPVSPSASRPSLYTGSHLLRTSRASGPDSENSETSTHATAAKEMDTSEKGEADLDDQSSNRLSVRERRRAKDRRRGTGINFWTNDEDETDVSEEVKEALHERLSRLESGGTNPTSSDSYSDRASARARREAREARLASLTSRVEEDSNRDYKKLYESALTENQKLKTKLQEAQLELADIKAKLEKMAQQKQEKTSDRSSVLEVEKRERRALERKMSEMEEEMKVLTELKSDNQRLKDENGALIRVISKLSK | binds
5 | Ppp1r3a (protein, UniProt Q99MR9 1-1089) MEPAEEPGQISKDNFLEVPNLSDSVCEDEEVKATFKPGFSPQPSRRGSGSSEDMYLDTPTSASRRVSFADSLGFSLVSVKEFDCWELPSVSTDFDLSGDVFHTDEYVLSPLFDLPSSKEKLMEQLQVQKAVLESAEHLPGSSMKGIIRVLNISFEKLVYVRMSLDDWQTHYDILAEYVPNSCDGETDQFSFKISLVPPYQKEGGKVEFCIRYETSAGTFWSNNNGTNYILVCQKKRKEPEPVKPLEEAPSRQIKGCLKVKSRSKEEPLLAPEENKFETLKFTESYIPTIICSHEDKDDLGANHPNVDDINKKHDEHNGKELDLMINQRLITSQDEKNTFATDTVNFTNKAEGSEKKQAYHEINTDLFMGPLSPSLSAESSLKRDFYHSRSSSPGNEYGHPHSEEIISDMGEKGPSLGDTSSDELMQLELCSKEDLDDNANPANGSGRVCSSFDQRMACGLKNNEAGIKKTGIQDYKYSHGDSTKLEESNASSRDDYAKVDNKKEKQTCLGVNENPSKNFQSVFQTQEGHMGYPKISTEGDKANNQDLTSLLSKDITANTWAVTVDPCPSTNAKRSWREVGSGSNLEPGTSDLSSPRNFSPLTDDHLFQADRENSDSSNPENQNMNTRHRKKWNVLETQSETSETESDIAKHTKEQAEYKDMWEKTDNSRNLKATPTEHLFTCRETECYGLSSLADHGITEKAQAVTAYIIKTTLESTPESASARGKAIIAKLPQETAGNDRPIEVKETAFDPHEGRKDDSHYSLCHGDTAGVIHDNDFERESHLDICNLRVDEMKKEKTTSTCFPQKTYDKEKHGIGSVTSIDEPSQVITGNQKATSKLDLHLGVLPTDRAIFQANADLELLQELSRRTDFNAVPSAFNSDTASASRDSSQVYRHCSKKSVPSYGEEKAVTNTTLQSIPTKSEYNWHPESEVLGHAMSKPEDVFKSSEIMKSGSGGERGGGPILQQKEGSLENSQGPMFFTNEPLENLDEASSENEGLMHSGQSQCYLGDKGLVSSASATVSTQELEAQGRESLLSISTNSKIPYFLLFLIFLATVYYYDLMIGLAFYLFSLYWLYWEGGRQRESVKKK | binds
6 | NEDD8-conjugating enzyme Ubc12 isoform 1 (protein, UniProt P61082 1-183) MIKLFSLKQQKKEEESAGGTKGSSKKASAAQLRIQKDINELNLPKTCDISFSDPDDLLNFKLVICPDEGFYKSGKFVFSFKVGQGYPHDPPKVKCETMVYHPNIDLEGNVCLNILREDWKPVLTINSIIYGLQYLFLEPNPEDPLNKEAAEVLQNNRRLFEQNVQRSMRGGYIGSTYFERCLK | binds
7 | C- > U-editing enzyme APOBEC-2 (protein, UniProt Q9WV35 1-224) MAQKEEAAEAAAPASQNGDDLENLEDPEKLKELIDLPPFEIVTGVRLPVNFFKFQFRNVEYSSGRNKTFLCYVVEVQSKGGQAQATQGYLEDEHAGAHAEEAFFNTILPAFDPALKYNVTWYVSSSPCAACADRILKTLSKTKNLRLLILVSRLFMWEEPEVQAALKKLKEAGCKLRIMKPQDFEYIWQNFVEQEEGESKAFEPWEDIQENFLYYEEKLADILK | binds

Other lines, results leading:

Row | binding | Binder
8 | binds | Uncharacterized protein C3orf30 homolog (protein, UniProt A6X8Z9 1-381) MDEPPDESLNHENTTRAPDNEKNNIEGAGQALHRGSEHAGVGSSEPTGDKVSGQANAGSRQTGRRTSEEAEQRSSQPTEHRLPGHAERRASQQAERRLSERRTSQPPNQQLPSHSERKTSGKIDGQESLLSEQTDQETSEFDDLIPSASTDYLSARSQQQEYNQHGYWTEDSSDPHRLSEDLEKDYTRVKHITEKQAGYRSYYKTLAHIESRTLTDTNDYRETGQRLQPCTFEDSEAELPSKVSTTEETESATTIQAYNTQDTELTTSTSHEKLPSITTKVYYSSSPEKIQTTEYTSDTTPVFDQGRSSQRSSQSSRWRFPPIVFEDPYHVALRYVEKHNILHIFQQITENLVYERPDDPLYFMLDQVQNMIKHRDERQSD
9 | binds | Protein DJ-1 (protein, UniProt Q99LX0 1-189) MASKRALVILAKGAEEMETVIPVDVMRRAGIKVTVAGLAGKDPVQCSRDVMICPDTSLEDAKTQGPYDVVVLPGGNLGAQNLSESPMVKEILKEQESRKGLIAAICAGPTALLAHEVGFGCKVTTHPLAKDKMMNGSHYSYSESRVEKDGLILTSRGPGTSFEFALAIVEALVGKDMANQVKAPLVLKD
10 | binds | protein phosphatase 1B (Ppm1b) (protein, UniProt P36993 1-390) MGAFLDKPKTEKHNAHGAGNGLRYGLSSMQGWRVEMEDAHTAVVGIPHGLDNWSFFAVYDGHAGSRVANYCSTHLLEHITTNEDFRAADKSGSALEPSVESVKTGIRTGFLKIDEYMRNFSDLRNGMDRSGSTAVGVMVSPTHMYFINCGDSRAVLCRNGQVCFSTQDHKPCNPVEKERIQNAGGSVMIQRVNGSLAVSRALGDYDYKCVDGKGPTEQLVSPEPEVYEIVRAEEDEFVVLACDGIWDVMSNEELCEFVKSRLEVSDDLENVCNWVVDTCLHKGSRDNMSVVLVCFSNAPKVSEEAVKRDSELDKHLESRVEEIMQKSGEEGMPDLAHVMRILSAENIPNLPPGGGLAGKRHVIEAVYSRLNPHKDNDGGAGDLEDSLVAL
11 | binds | UTP--glucose-1-phosphate uridylyltransferase (protein, UniProt Q91ZJ5 1-508) MSRFVQDLSKAMSQDGASQFQEVILQELELSVKKELEKILTTAASHEFEHTKKDLDGFRKLFHRFLQEKGPSVDWGKIQRPPEDSIQPYEKIKARGLPDNISSVLNKLVVVKLNGGLGTSMGCKGPKSLIGVRNENTFLDLTVQQIEHLNKTYNTDVPLVLMNSFNTDEDTKKILQKYNHCRVKIYTFNQSRYPRINKESLLPIAKDVSYSGENTEAWYPPGHGDIYASFYNSGLLDTFIEEGKEYIFVSNIDNLGATVDLYILNHLMNPPNGKRCEFVMEVTNKTRADVKGGTLTQYEGKLRLVEIAQVPKAHVDEFKSVSKFKIFNTNNLWISLGAVKRLQEQNAIDMEIIVNPKTLDGGLNVIQLETAVGAAIKSFENSLGINVPRSRFLPVKTTSDLLLVMSNLYSLNAGSLTMSEKREFPTVPLVKLGSSFTKVQDYLRRFESIPDMLELDHLTVSGDVTFGKNVSLKGTVIIIANHGDRIDIPPGAVLENKIVSGNLRILDH

Source: PMC10626543
